Test system: FLT3 autophosphorylation in Molm14 cells (FLT3/ITD)
Experiment: Inhibition of FLT3 autophosphorylation in Molm14 cells in presence of FL (immunoblot)
Type: cell-based
Method: Leukemia cells were washed in PBS, then lysed by re-suspending them in lysis buffer (20 mM Tris pH 7.4, 100 mM NaCl, 1% Igepal (Sigma, St. Louis, Mo.), 1 mM EDTA, 2 mM NaV04, plus Complete protease inhibitor (Roche)) for 30 minutes while rocking. The extract was clarified by centrifugation at 14,000 rpm and the supernatant was assayed for protein (Bio-Rad, Richmond, Calif.). A 50 μg aliquot was removed as whole-cell lysate for analysis of STAT5, and the remainder was used for immunoprecipitation with anti-FLT3 antibody. Anti-FLT3 antibody (SI8; Santa Cruz Biotechnology, Santa Cruz, Calif.) was added to the extract for overnight incubation, then protein A sepharose (Upstate Biotechnology, Lake Placid, N.Y.) was added for 2 additional hours. Separate SDS-PAGE (sodium dodecylsulfate polyacrylamide electrophoresis) gels for whole-cell lysate and immunoprecipitates were run in parallel, After transfer to Immobilon membranes (Millipore, Bedford, Mass.), immunoblotting was performed with antiphosphotyrosine antibody (4G10; Upstate Biotechnology, Lake Placid, N.Y.) to detect phosphorylated FLT3, and then stripped and re-probed with anti-FLT3 antibody to measure total FLT3. Proteins were visualized using chemiluminescence (ECL; GE Healthcare, Piscataway, N.J.), exposed on Kodak BioMax XAR Film, developed, and scanned using a BioRad GS800 densitometer.

## CO[C@@H]1[C@H](N(C)C(=O)c2ccccc2)C[C@H]2O[C@]1(C)n1c3ccccc3c3c4c(c5c6ccccc6n2c5c31)C(=O)NC4 [Midostaurin]
Exogenous FL, in medium and plasma
  effect of FL on dose response curve for inhibition of FLT3 autophosphorylation: upward shift in the dose response curves
Medium and plasma
  effect of addition of FL on inhibition at the highest doses used: loss of complete inhibition

— US20130156764A1, “NEUTRALIZATION OF FLT3 LIGAND AS A LEUKEMIA THERAPY” (The Johns Hopkins University, priority 2010, published 2013)
